Primary screen of a compound library

Chains of the proteins cited; added tags and fusions are not shown. Residues count along the entry.
UniProt P9WFT3, whole entry: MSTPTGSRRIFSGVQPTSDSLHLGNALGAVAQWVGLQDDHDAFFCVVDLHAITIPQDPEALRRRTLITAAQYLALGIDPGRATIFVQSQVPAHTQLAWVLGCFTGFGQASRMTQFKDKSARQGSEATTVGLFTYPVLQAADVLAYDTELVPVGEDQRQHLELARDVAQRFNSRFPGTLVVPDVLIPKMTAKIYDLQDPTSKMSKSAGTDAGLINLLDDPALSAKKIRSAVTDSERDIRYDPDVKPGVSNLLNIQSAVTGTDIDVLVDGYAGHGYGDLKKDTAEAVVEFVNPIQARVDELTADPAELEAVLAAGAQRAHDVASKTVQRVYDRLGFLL
UniProt I6X8D2, whole entry: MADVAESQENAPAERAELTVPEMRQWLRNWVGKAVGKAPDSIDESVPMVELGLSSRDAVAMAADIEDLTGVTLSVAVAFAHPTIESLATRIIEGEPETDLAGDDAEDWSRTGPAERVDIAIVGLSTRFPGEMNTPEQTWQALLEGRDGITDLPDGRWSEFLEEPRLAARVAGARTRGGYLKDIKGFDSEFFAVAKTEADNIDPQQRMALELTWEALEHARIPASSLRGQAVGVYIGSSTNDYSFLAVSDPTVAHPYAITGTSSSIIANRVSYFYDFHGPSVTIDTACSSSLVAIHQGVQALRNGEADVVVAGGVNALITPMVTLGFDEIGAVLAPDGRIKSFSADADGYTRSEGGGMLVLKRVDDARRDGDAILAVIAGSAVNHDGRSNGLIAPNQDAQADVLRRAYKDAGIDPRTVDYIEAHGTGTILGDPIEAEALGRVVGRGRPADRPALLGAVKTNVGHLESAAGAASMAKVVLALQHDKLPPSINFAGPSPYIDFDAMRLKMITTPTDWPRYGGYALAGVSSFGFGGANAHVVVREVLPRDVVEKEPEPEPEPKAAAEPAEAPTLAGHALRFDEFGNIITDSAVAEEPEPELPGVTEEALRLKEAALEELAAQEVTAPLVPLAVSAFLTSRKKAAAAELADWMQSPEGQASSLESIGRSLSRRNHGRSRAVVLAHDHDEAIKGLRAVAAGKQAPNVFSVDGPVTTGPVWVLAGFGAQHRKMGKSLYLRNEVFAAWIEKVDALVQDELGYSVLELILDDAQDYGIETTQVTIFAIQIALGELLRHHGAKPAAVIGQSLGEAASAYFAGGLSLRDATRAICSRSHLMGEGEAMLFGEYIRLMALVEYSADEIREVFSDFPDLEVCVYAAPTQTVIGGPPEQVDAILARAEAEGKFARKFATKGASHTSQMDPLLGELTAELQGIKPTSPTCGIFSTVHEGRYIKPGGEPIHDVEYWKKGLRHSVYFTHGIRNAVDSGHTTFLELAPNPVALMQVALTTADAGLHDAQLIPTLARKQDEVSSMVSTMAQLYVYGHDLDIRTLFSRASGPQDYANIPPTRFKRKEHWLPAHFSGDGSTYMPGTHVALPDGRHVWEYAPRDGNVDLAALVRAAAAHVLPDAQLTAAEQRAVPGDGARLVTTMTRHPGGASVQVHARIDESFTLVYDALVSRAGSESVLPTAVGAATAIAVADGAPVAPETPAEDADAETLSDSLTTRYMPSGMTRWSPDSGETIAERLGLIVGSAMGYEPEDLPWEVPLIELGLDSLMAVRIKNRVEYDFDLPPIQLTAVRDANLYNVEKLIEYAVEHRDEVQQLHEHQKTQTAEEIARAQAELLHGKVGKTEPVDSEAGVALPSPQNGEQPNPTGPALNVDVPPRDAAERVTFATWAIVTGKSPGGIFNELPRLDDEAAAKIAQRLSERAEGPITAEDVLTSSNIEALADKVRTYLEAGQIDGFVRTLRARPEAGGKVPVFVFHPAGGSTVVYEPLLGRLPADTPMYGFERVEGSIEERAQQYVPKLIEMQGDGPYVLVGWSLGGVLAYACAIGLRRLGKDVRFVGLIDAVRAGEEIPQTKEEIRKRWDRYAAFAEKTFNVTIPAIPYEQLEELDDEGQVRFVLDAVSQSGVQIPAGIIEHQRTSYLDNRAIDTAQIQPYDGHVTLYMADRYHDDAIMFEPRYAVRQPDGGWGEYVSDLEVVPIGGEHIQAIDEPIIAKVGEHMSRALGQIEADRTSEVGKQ
UniProt A4I591, 1-473: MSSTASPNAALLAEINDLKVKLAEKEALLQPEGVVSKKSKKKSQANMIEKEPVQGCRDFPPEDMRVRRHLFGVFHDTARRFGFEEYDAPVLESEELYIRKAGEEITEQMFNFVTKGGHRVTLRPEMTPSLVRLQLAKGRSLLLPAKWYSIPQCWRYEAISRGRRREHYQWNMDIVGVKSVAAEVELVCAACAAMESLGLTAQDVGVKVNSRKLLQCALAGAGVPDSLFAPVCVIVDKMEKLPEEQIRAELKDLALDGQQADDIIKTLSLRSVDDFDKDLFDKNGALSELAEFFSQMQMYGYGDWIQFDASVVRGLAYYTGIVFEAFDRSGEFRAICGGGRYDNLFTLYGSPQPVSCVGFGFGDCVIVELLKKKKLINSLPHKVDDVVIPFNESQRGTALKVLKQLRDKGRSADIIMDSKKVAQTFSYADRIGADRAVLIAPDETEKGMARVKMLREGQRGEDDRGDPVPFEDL
UniProt Q8IDJ8, 1-583: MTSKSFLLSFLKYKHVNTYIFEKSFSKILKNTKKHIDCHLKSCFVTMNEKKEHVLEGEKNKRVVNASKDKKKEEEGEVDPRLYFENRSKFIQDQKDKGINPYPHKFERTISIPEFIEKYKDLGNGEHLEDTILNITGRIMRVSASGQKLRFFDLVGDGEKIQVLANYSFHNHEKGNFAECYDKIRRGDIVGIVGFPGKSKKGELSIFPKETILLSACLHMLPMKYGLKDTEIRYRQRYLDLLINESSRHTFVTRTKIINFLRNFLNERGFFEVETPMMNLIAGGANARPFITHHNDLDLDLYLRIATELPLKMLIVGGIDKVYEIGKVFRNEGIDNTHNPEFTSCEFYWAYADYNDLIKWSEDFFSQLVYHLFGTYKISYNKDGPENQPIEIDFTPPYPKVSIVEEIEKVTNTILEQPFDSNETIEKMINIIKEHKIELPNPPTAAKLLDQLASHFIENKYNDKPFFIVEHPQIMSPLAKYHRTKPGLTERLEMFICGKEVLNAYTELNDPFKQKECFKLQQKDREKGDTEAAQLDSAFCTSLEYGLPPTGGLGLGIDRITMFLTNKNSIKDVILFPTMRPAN

Measurements from “University of Dundee, Small-Polar-MMV Screening Library” (2021), ChEMBL document CHEMBL3988442.

MtTrpRS: 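Tryptophan-tRNA ligase, Mycobacterium tuberculosis (UniProt P9WFT3). Enzyme assay of tryptophanyl-tRNA synthetase; the read-out is not stated. Compounds at 10 µM. Higher most likely means stronger inhibition; the record gives no direction and few retests gave an IC50. About 65,000 compounds were tested under these conditions; 0.098% (about 64) showed 50% or more at least once.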
Pks13 thioesterase: 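Polyketide synthase Pks13, Mycobacterium tuberculosis (UniProt I6X8D2). Enzyme assay of the thioesterase domain of polyketide synthase 13; the read-out is not stated. Concentration: 30 µM. The record gives no direction; the compounds picked for IC50 retests had high values, so higher reads as stronger inhibition. Size under these conditions: about 67,000 compounds, about 300 of them at 50% or above in at least one test.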
LiHisRS: 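Enzyme assay of histidyl-tRNA synthetase; the read-out is not stated. Target: Histidine-tRNA ligase, Leishmania infantum (UniProt A4I591). Compounds at 30 µM. The record gives no direction; compounds that gave an IC50 in retests scored well above the rest, so higher reads as stronger inhibition. The assay is labelled LdHisRS but filed under L. infantum. Of about 69,000 compounds tested this way, about 410 (0.6%) reached 50% or more in at least one test.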
PfKRS1: 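Lysine-tRNA ligase, Plasmodium falciparum 3D7 (UniProt Q8IDJ8). Enzyme assay of the cytosolic lysyl-tRNA synthetase in 384-well plates, read by luminescence. Compounds at 30 µM. Direction is inferred from only a few compounds that gave an IC50; most scored high, so higher reads as stronger inhibition. Size under these conditions: about 69,000 compounds, about 49 of them at 50% or above in at least one test.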

The filed quantity is “Percent Effect” (%).
How 0% and 100% were set is not recorded. Most values in the screen are low, and negative values occur.
This is an unselected part of the compounds tested.

{"compound": "O[C@@H]1CN(Cc2cnccn2)C[C@H]1Oc1ccccc1", "MtTrpRS": -1.882, "Pks13 thioesterase": 8.459, "LiHisRS": 13.1, "PfKRS1": -0.2583}
{"compound": "O=C(Nc1cnn(CCN2CCOCC2)c1)c1ccccc1O", "MtTrpRS": -0.1572, "Pks13 thioesterase": -5.954, "LiHisRS": 23.2, "PfKRS1": 4.62}
{"compound": "Cc1sc2ncnc(N3CCCC3Cn3cccn3)c2c1C", "stereo": "stereo not shown", "MtTrpRS": 3.785, "Pks13 thioesterase": -28.95, "LiHisRS": 15.29, "PfKRS1": 1.065}
{"compound": "CCc1ncc(C(=O)NCCn2c(C)cc(C)nc2=O)cn1", "MtTrpRS": 2.189, "Pks13 thioesterase": -10.14, "LiHisRS": 13.22, "PfKRS1": 1.54}
{"compound": "Cc1nn(C)c(Cl)c1C1CCCN1CC(=O)N1CCOCC1", "stereo": "stereo not shown", "MtTrpRS": -5.848, "Pks13 thioesterase": -4.876, "LiHisRS": 0.885, "PfKRS1": 4.26}
{"compound": "CCC(C(=O)N(C)Cc1cc(COC)[nH]n1)n1cccn1", "stereo": "stereo not shown", "MtTrpRS": -6.588, "Pks13 thioesterase": -31.7, "LiHisRS": 12.05, "PfKRS1": 2.528}
{"compound": "Cn1ccc(CN2CCCC23CCNCC3)n1", "MtTrpRS": -3.456, "Pks13 thioesterase": -43.71, "LiHisRS": 9.402, "PfKRS1": 7.763}
{"compound": "C[C@H]1C[C@@H]2CCN(C(=O)c3ccncn3)C[C@H]2O1", "MtTrpRS": -0.3752, "Pks13 thioesterase": -5.375, "LiHisRS": 17.31, "PfKRS1": 4.974}
{"compound": "Cc1ncsc1C(=O)N1CC(C)Sc2ccccc21", "stereo": "stereo not shown", "MtTrpRS": -7.869, "Pks13 thioesterase": -25.64, "LiHisRS": 8.772, "PfKRS1": 3.517}
{"compound": "CS(=O)(=O)c1ccc2c(c1)N(C(=O)c1cccc(F)c1)CCC2", "MtTrpRS": -4.932, "Pks13 thioesterase": -21.94, "LiHisRS": 10.67, "PfKRS1": 7.998}
{"compound": "O=C(c1cnc(C2CC2)nc1O)N1CCN(Cc2ccccc2F)CC1", "MtTrpRS": 5.686, "Pks13 thioesterase": -10.24, "LiHisRS": 23.08, "PfKRS1": 4.151}
{"compound": "OC1CCN(CCCNc2nccc(C3CCCC3)n2)CC1", "MtTrpRS": -2.094, "Pks13 thioesterase": 2.594, "LiHisRS": 16.81, "PfKRS1": 7.594}
{"compound": "O=C(Nc1ccccn1)N(CCO)Cc1ccsc1", "MtTrpRS": -0.6289, "Pks13 thioesterase": -9.229, "LiHisRS": 24.8, "PfKRS1": 1.88}
{"compound": "Clc1ccc(OCCCN2CCOC(Cn3cncn3)C2)cc1", "stereo": "stereo not shown", "MtTrpRS": 16.33, "Pks13 thioesterase": 8.76, "LiHisRS": 10.53, "PfKRS1": -0.5648}
{"compound": "O=C(NC1CC1)C1CCc2nnc(-c3cccc(C(F)(F)F)c3)n21", "stereo": "stereo not shown", "MtTrpRS": -4.581, "Pks13 thioesterase": -5.486, "LiHisRS": 2.759, "PfKRS1": -1.074}
{"compound": "CC(c1ccc(F)cc1F)N1CCN(CCN2CCCC2=O)CC1", "stereo": "stereo not shown", "MtTrpRS": -1.782, "Pks13 thioesterase": -7.555, "LiHisRS": 8.333, "PfKRS1": 5.85}
{"compound": "CCOCCCn1c(NC(=O)c2ccc(C)nc2)nc2ccccc21", "MtTrpRS": -2.958, "Pks13 thioesterase": -6.217, "LiHisRS": 13.7, "PfKRS1": 0.4753}
{"compound": "NCC1CCN(c2nc(C3CCCC3)nc3c2CCNCC3)C1", "stereo": "stereo not shown", "MtTrpRS": 5.455, "Pks13 thioesterase": -19.63, "LiHisRS": -1.01, "PfKRS1": -5.278}
{"compound": "NC(=O)C1CCN(C(=O)c2cccc(CN3CCOCC3)c2)CC1", "MtTrpRS": 5.308, "Pks13 thioesterase": -3.361, "LiHisRS": 4.808, "PfKRS1": 0.05863}
{"compound": "CC(C)(C)CNC[C@H]1Cn2ccnc2CO1", "MtTrpRS": -4.932, "Pks13 thioesterase": 7.239, "LiHisRS": 17.57, "PfKRS1": 4.691}
{"compound": "Cc1noc(C)c1CN1CCCC1c1nnc2ccccn12", "stereo": "stereo not shown", "MtTrpRS": -0.4591, "Pks13 thioesterase": -14.61, "LiHisRS": 13.25, "PfKRS1": 1.209}
{"compound": "CC(C)(C)c1ccc(OCC(=O)O)c(CN2C[C@H]3C[C@H](O)C[C@H]3C2)c1", "MtTrpRS": -5.943, "LiHisRS": 14.49, "PfKRS1": -1.024}
{"compound": "COC[C@@H]1CCC[C@@]12CN(Cc1ccco1)CCO2", "MtTrpRS": -1.798, "Pks13 thioesterase": 2.291, "LiHisRS": 23.08, "PfKRS1": 2.918}
{"compound": "COCCN1CC2(CCCN(C(=O)NCc3ccccc3)C2)CCC1=O", "stereo": "stereo not shown", "MtTrpRS": -0.7452, "Pks13 thioesterase": -10.37, "LiHisRS": 24.66, "PfKRS1": 2.621}
{"compound": "CCCNC(=O)Cn1nc(C)c2cnn(C(C)(C)C)c2c1=O", "MtTrpRS": 3.597, "Pks13 thioesterase": -15.16, "LiHisRS": 6.612, "PfKRS1": -0.6354}
{"compound": "Cc1nc(C)n(CCNS(=O)(=O)NCc2ccccc2)n1", "MtTrpRS": -3.832, "Pks13 thioesterase": -15.36, "LiHisRS": 7.792, "PfKRS1": 3.007}
{"compound": "COc1cccc(CCC2CCCN(Cc3ncc[nH]3)C2)c1", "stereo": "stereo not shown", "MtTrpRS": -3.047, "Pks13 thioesterase": -28.5, "LiHisRS": -8.861, "PfKRS1": -4.13}
{"compound": "Cc1ccccc1C(C)NC(=O)Cc1c(C)nc2cc(=O)[nH]n2c1C", "stereo": "stereo not shown", "MtTrpRS": 3.121, "Pks13 thioesterase": 3.969, "LiHisRS": 19.18, "PfKRS1": 6.364}
{"compound": "CC(C)N1CCC2(CC1)CC(NCc1ccccn1)c1ccccc1O2", "stereo": "stereo not shown", "MtTrpRS": -4.979, "Pks13 thioesterase": -3.362, "LiHisRS": 0, "PfKRS1": -6.405}
{"compound": "Cn1cc(CN2C[C@@H]3COC[C@]3(CNC(=O)c3ccsc3)C2)cn1", "MtTrpRS": 2.397, "Pks13 thioesterase": -27.4, "LiHisRS": 9.804, "PfKRS1": 3.325}

Once more, the final 4:

| Compound | MtTrpRS | Pks13 thioesterase | LiHisRS | PfKRS1 |
|---|---|---|---|---|
| `COc1cccc(CCC2CCCN(Cc3ncc[nH]3)C2)c1` (stereo not shown) | -3.047 | -28.5 | -8.861 | -4.13 |
| `Cc1ccccc1C(C)NC(=O)Cc1c(C)nc2cc(=O)[nH]n2c1C` (stereo not shown) | 3.121 | 3.969 | 19.18 | 6.364 |
| `CC(C)N1CCC2(CC1)CC(NCc1ccccn1)c1ccccc1O2` (stereo not shown) | -4.979 | -3.362 | 0 | -6.405 |
| `Cn1cc(CN2C[C@@H]3COC[C@]3(CNC(=O)c3ccsc3)C2)cn1` | 2.397 | -27.4 | 9.804 | 3.325 |